Test results from PMC6344858.
Construct, isoform or probe ends are uncertain for at least one entry. For part of these data: Negatives hold for the conditions tested. For part of these data: At least one verdict was read from the data and is not stated in words by the source.

Assays:
PfoI D169A = PfoI D169A (UniProt A0A452CST9); assay: EMSA; settings: 5 mM Ca2+, EMSA: 40 mM Tris-acetate pH 8.3, 5 mM Ca acetate, 0.1 mg/ml BSA, 10% glycerol, room temperature, 15 min, 0.2 nM DNA, 0.05-1000 nM dimer, recombinant protein, label: 5'-33P
PfoI E113A = PfoI E113A (UniProt A0A452CST9); assay: EMSA; settings: 5 mM Ca2+, EMSA: 40 mM Tris-acetate pH 8.3, 5 mM Ca acetate, 0.1 mg/ml BSA, 10% glycerol, room temperature, 15 min, 0.2 nM DNA, 0.05-1000 nM dimer, recombinant protein, label: 5'-33P
PfoI E167A = PfoI E167A (UniProt A0A452CST9); assay: EMSA; settings: 5 mM Ca2+, EMSA: 40 mM Tris-acetate pH 8.3, 5 mM Ca acetate, 0.1 mg/ml BSA, 10% glycerol, room temperature, 15 min, 0.2 nM DNA, 0.05-1000 nM dimer, recombinant protein, label: 5'-33P
PfoI F99A = PfoI F99A (UniProt A0A452CST9); assay: EMSA; settings: 5 mM Ca2+, nonspecific-mobility complex; EMSA: 40 mM Tris-acetate pH 8.3, 5 mM Ca acetate, 0.1 mg/ml BSA, 10% glycerol, room temperature, 15 min; 0.2 nM DNA, 0.05-1000 nM dimer; recombinant protein; label: 5'-33P
PfoI F99A-R100A = PfoI F99A-R100A (UniProt A0A452CST9); assay: EMSA; settings: 5 mM Ca2+, nonspecific-mobility complex; EMSA: 40 mM Tris-acetate pH 8.3, 5 mM Ca acetate, 0.1 mg/ml BSA, 10% glycerol, room temperature, 15 min; 0.2 nM DNA, 0.05-1000 nM dimer; recombinant protein; label: 5'-33P
PfoI R100A = PfoI R100A (UniProt A0A452CST9); assay: EMSA; settings: 5 mM Ca2+, nonspecific-mobility complex; EMSA: 40 mM Tris-acetate pH 8.3, 5 mM Ca acetate, 0.1 mg/ml BSA, 10% glycerol, room temperature, 15 min; 0.2 nM DNA, 0.05-1000 nM dimer; recombinant protein; label: 5'-33P
PfoI WT [1] = target: T1, PfoI WT (UniProt A0A452CST9); assay: EMSA; settings: 5 mM Ca2+, EMSA: 40 mM Tris-acetate pH 8.3, 5 mM Ca acetate, 0.1 mg/ml BSA, 10% glycerol, room temperature, 15 min, 0.2 nM DNA, 0.05-1000 nM dimer, recombinant protein, label: 5'-33P
PfoI WT [2] = target: T1, PfoI WT; assay: gel filtration; settings: 5 mM Ca2+, 13.8 uM dimer, dimer:DNA 1:1.2; recombinant protein

CGCACGACTTCCTGGAAGAGCACGC / GTTGCGTGCTCTTCCAGGAAGTCGTGCG [SP25]
Kd (PfoI D169A; specific-mobility complex): 100 nM
Kd (PfoI E113A; specific-mobility complex): 100 nM
Kd (PfoI E167A; specific-mobility complex): 10 nM
Kd (PfoI F99A): 100 nM
Kd (PfoI F99A-R100A): 100 nM
Kd (PfoI R100A): 10 nM
Kd (PfoI WT [1]; fast-mobility specific complex): 1 nM

CGCACGACTTGTCACAAGAGCACGC / GTTGCGTGCTCTTGTGACAAGTCGTGCG [NSP25]
binding result (PfoI D169A; text and table say no complex, but the table also prints Kd 100 nM): no binding
Kd (PfoI E113A; no complex): > 1000 nM
binding result (PfoI E167A; nonspecific-mobility complex): binds
Kd (PfoI F99A): 100 nM
Kd (PfoI F99A-R100A): 100 nM
Kd (PfoI R100A): 10 nM
Kd (PfoI WT [1]; nonspecific-mobility complex): 100 nM

TAGCTCCAGGACGA / TTCGTCCTGGAGCT [SP14-GF]
binding result (PfoI WT [2]): binds
